{"source": "patent US20090041818A1", "about": "“ANTIVIRAL AGENT, AND FABRIC AND ANTIVIRAL MEMBER […] AGENT” (priority 2003, published 2009)", "system": "influenza type A virus, Cygnus columbianus/Shimane/499/83 (H5N3) (avian strain)", "note": "At least one structure is not confirmed: it was looked up by name or label, or the drawing left a doubt."}
{"compound": "[Ca+2].[OH-].[OH-]", "note": "[Sample 2, calcium hydroxide]", "values": [{"measurement": "virus factor (virus titer, Reed and Muench method)", "value": "10^5.50"}]}
